The list shows a part of the results. Shown are side measurements of this screen, not its main read-out; they come without a call. Most of these compounds were active or inconclusive in the main read-out, so they are no random draw. Words in brackets tell the shape of the fitted curve; partial curves, single points and poor fits give uncertain potencies.
Experiment: qHTS Assay for Lipid Storage Modulators in Drosophila S3 Cells;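 on cell number change: cells counted by Cell Tracker Red CMTPX staining in the red channel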
Details: BODIPY lipid droplet fluorescence, 18-24 h; for cell number change: measured here: cell count max response, cells fed with added oleic acid
In short: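 Drosophila S3 cells got compounds at several concentrations plus oleic acid (400 uM solution). Laser-scanning cytometry with 488 nm excitation read lipid droplets at 500-530 nm and cells at 575-640 nm. Percent activity was relative to 20 uM Triacsin C.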

[1] = measured here: lipid fluorescence (Fed channel) AC50, cells fed with added oleic acid
[2] = measured here: cell number channel AC50, cells fed with added oleic acid

SMILES	cell number change [%]	AC50 [1]	AC50 [2]
COc1ccc(-c2cc(-c3nnc(-c4ccncc4)o3)c3ccccc3n2)cc1	12.3	1.46 µM [rising, full curve]	–
O=C(CCNC(=O)c1ccc(Cl)cc1)NNC(=O)c1ccc(F)cc1	19	–	–
Cc1sc2nc(SCC(=O)Nc3ccc(S(N)(=O)=O)cc3)[nH]c(=O)c2c1C	33	29.1 µM [rising, single point]	–
Cc1ccc(CN2CC(=O)N3[C@H]4c5cc(C)ccc5OC[C@@H]4[C@H](c4ccccc4)[C@]3(C)C2=O)cc1	-0.552	3.66 µM [falling, single point]	4.11 µM [falling, single point]
CCc1ccc2nc(NC(=O)c3ccc(N4C(=O)CCC4=O)cc3)sc2c1	-15.8	29.1 µM [falling, single point]	–
FC(F)Sc1ccc(NC2=NCCCCC2)cc1	12.4	–	–
CC12CCCC[C@@H]1CCC1C2CCC2(C)C1CC[C@@]2(O)CNCCO (some centres undefined)	-2.36	2.31 µM [falling, single point]	–
O=C(CN1CCCCCC1)Nc1ccc(Br)cc1	7.5	0.731 µM [falling, single point]	4.11 µM [falling, partial curve, poor fit]
Cc1ccc(C)n1-c1ccc(C(=O)NN)cc1	3.54	2.91 µM [rising, single point]	–
CCC(C)(C)C1CCC2(CC1)NC(=O)N(CC(=O)Nc1cc(C(F)(F)F)ccc1N1CCOCC1)C2=O (centres undefined)	-7.18	–	–
COc1ccccc1C(CNC(=O)CCNC(=O)c1ccccc1Cl)N1CCCC1 (centres undefined)	5.36	–	5.8 µM [falling, single point]
Cc1cc2nc3c(=O)n(C4CCCCC4)c(=O)[nH]c3nc2cc1N	0.91	11.6 µM [falling, partial curve]	–
Cc1ccc(S(=O)(=O)/N=C(\Nc2cc(C)on2)c2ccc(Cl)cc2)cc1	4.07	6.51 µM [rising, partial curve]	0.13 µM [falling, full curve, poor fit]
COc1ccccc1CCc1nnc(N)s1	16.3	–	–
CCOC(=O)C1(CC/C(C)=N\NC(N)=O)CC(C)OC1=O (centres undefined)	5.62	8.2 µM [rising, partial curve]	6.51 µM [rising, single point]
Cc1ccc2[nH]c(-c3ccccc3)c(CN(C)C)c(=O)c2c1	-46.7	–	18.4 µM [falling, single point]
COn1c(-c2ccc(Cl)cc2)nc2ncccc21	-0.118	7.31 µM [rising, partial curve]	–
COc1ccc(S(=O)(=O)Nc2ccc(CC#N)cc2)cc1	-21.4	20.6 µM [falling, single point]	–
O=C(NCCS(=O)(=O)NCc1ccccc1)c1ccc2c(c1)OCO2	-18.1	6.51 µM [falling, single point]	–
COc1ccc(OC)c(NC(=O)Cn2c(CCC(=O)O)ccc2-c2cccs2)c1	0.255	16.4 µM [rising, single point]	–
O=C(Nc1nc2ccccc2[nH]1)C1CCN(S(=O)(=O)c2cccs2)CC1	–	0.58 µM [rising, single point]	–
CCn1c(COc2ccc(C)cc2)nnc1SCC(=O)Nc1ccc(S(N)(=O)=O)cc1	-0.171	–	–
C=CCn1c(SCc2ccc(C(=O)OC)cc2)nnc1-c1sc(N)nc1C	15.5	7.31 µM [rising, partial curve, poor fit]	–
O=C(Nc1ccccc1)c1ccc(S(=O)(=O)NCC2CCCO2)cc1 (centres undefined)	-28.6	–	0.164 µM [falling, full curve, poor fit]
COC(=O)CN(c1ccc(C)cc1)S(=O)(=O)c1c(C)[nH]c(=O)[nH]c1=O	-38.2	–	0.461 µM [falling, full curve, poor fit]
CCN(CC)CC(=O)NCC1(c2ccccc2)CCCC1	-6.71	3.66 µM [falling, full curve, poor fit]	–
N=c1oc2ccccc2cc1-c1nc2ccccc2c(=O)[nH]1	70.8	0.116 µM [rising, full curve]	0.259 µM [rising, full curve]
Oc1cccc(-c2nc3c4c(ncn3n2)-c2ccccc2CC42CCCC2)c1	-78	–	6.51 µM [falling, full curve, poor fit]
CCCC(=O)Nc1nnc(S(=O)(=O)N2CCCCCC2)s1	-4.49	6.51 µM [rising, single point]	–
COc1ccc(NC(=O)CSc2nnnn2C2CC2)cc1S(=O)(=O)N1CCOCC1	5.95	6.51 µM [rising, single point]	–

Given as comma-separated lines: part of the list above.
SMILES,cell number change [%],AC50 [1],AC50 [2]
Cc1cc2nc3c(=O)n(C4CCCCC4)c(=O)[nH]c3nc2cc1N,0.91,"11.6 µM [falling, partial curve]",–
O=C(Nc1nc2ccccc2[nH]1)C1CCN(S(=O)(=O)c2cccs2)CC1,–,"0.58 µM [rising, single point]",–
